Measured values as given in PMC11884936, “MDC1 mediates Pellino recruitment to sites of DNA double-strand breaks” (Life Science Alliance, 2025).
Results are given in words; binding and its absence hold for the method and conditions named. In cells and extracts the contact can be indirect. Some binding calls cover weakened binding; strength is not graded here.

Molecular target: T1, MDC1-[p]T699 biotinylated phosphopeptide (Biotin-SGS-…[p]TQCFLE-NH2) (human)
T1 sequence (peptide, biotin on the N-terminus; phosphothreonine at T699; C-terminal amide): SGSDSEDLDLQATQCFLE
Test: pull-down; biotinylated peptide on streptavidin Dynabeads, incubated with HeLa nuclear extract 4 h at 4°C; SDS-PAGE and Western blot; only the target purified

binding: binds
B1: RNF8 (endogenous, HeLa nuclear extract) (protein, UniProt O76064 1-485)
chain: MGEPGFFVTGDRAGGRSWCLRRVGMSAGWLLLEDGCEVTVGRGFGVTYQLVSKICPLMISRNHCVLKQNPEGQWTIMDNKSLNGVWLNRARLEPLRVYSIHQGDYIQLGVPLENKENAEYEYEVTEEDWETIYPCLSPKNDQMIEKNKELRTKRKFSLDELAGPGAEGPSNLKSKINKVSCESGQPVKSQGKGEVASTPSDNLDPKLTALEPSKTTGAPIYPGFPKVTEVHHEQKASNSSASQRSLQMFKVTMSRILRLKIQMQEKHEAVMNVKKQTQKGNSKKVVQMEQELQDLQSQLCAEQAQQQARVEQLEKTFQEEEQHLQGLEIAQGEKDLKQQLAQALQEHWALMEELNRSKKDFEAIIQAKNKELEQTKEEKEKMQAQKEEVLSHMNDVLENELQCIICSEYFIEAVTLNCAHSFCSYCINEWMKRKIECPICRKDIKSKTYSLVLDNCINKMVNNLSSEVKERRIVLIRERKAKRLF
